Assay results as given in publication PMC7015052, “Transferrin plays a central role in coagulation balance by interacting with clotting factors” (Cell Research, 2019).
These are yes or no findings as the source states them, for the method shown. Some results given as binding are weak or reduced against the parent protein; the word gives no strength.

The chains behind the UniProt entries cited, without tags or fusion partners. Where a name states a change or a piece, a line headed by the entry shows the natural chain unless it says otherwise. A line that says so, or that is headed by a name, gives the form on record, which may keep a tag or linker. Residues count along the entry.
UniProt P02768, residues 25-609: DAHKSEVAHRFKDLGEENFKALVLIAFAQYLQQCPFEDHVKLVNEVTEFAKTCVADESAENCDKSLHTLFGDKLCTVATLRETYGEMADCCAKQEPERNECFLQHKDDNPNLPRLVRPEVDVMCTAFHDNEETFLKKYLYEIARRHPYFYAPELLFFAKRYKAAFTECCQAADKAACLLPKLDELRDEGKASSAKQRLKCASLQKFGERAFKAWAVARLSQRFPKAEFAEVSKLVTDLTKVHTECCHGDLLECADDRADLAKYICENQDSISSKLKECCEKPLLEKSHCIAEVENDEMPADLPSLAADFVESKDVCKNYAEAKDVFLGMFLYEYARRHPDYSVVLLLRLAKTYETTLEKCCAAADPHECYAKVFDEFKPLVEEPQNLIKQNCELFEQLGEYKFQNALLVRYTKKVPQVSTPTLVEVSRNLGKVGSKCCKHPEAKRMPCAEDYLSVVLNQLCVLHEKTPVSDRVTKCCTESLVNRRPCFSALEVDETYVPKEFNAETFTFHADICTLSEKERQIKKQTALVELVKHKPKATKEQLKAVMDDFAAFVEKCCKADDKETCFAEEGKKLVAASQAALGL
apo-transferrin (P02787, residues 20-698): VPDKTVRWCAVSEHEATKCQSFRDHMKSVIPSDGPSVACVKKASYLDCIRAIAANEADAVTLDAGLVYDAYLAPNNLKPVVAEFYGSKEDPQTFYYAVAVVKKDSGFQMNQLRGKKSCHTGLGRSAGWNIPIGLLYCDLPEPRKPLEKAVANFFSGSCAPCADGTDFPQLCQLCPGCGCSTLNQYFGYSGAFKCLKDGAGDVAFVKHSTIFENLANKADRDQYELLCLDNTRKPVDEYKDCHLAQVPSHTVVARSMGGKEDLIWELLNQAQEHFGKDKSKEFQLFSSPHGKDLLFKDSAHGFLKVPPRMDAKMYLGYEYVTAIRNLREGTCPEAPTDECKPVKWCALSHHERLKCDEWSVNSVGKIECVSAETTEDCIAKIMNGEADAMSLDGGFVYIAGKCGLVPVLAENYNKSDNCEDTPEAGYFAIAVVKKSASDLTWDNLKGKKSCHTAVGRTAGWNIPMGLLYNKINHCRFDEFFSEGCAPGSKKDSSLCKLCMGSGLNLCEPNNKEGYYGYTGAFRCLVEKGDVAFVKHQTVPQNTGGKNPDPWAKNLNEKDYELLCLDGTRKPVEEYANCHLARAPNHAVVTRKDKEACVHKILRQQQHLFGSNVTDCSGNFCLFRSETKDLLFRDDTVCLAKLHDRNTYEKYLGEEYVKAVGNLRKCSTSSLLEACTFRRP
transferrin mutant (E333,338R) (P02787, form named): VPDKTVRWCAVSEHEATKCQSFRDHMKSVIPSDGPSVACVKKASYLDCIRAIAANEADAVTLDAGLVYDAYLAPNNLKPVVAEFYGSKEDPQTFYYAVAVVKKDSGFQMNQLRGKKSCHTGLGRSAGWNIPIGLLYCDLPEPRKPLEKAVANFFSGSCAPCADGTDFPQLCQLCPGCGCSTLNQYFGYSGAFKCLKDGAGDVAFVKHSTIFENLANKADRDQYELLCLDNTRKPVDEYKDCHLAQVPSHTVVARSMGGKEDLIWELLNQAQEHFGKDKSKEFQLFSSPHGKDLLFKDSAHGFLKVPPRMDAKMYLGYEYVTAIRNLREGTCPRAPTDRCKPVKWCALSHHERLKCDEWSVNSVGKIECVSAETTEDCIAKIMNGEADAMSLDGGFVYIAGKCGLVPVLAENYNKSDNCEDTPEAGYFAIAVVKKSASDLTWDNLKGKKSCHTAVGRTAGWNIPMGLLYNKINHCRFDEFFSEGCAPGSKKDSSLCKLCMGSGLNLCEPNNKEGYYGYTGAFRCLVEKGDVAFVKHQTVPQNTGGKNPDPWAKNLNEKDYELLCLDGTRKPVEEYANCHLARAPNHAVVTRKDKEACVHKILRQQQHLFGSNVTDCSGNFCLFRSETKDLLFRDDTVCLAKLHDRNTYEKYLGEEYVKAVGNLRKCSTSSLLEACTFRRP
UniProt P01008, residues 33-464: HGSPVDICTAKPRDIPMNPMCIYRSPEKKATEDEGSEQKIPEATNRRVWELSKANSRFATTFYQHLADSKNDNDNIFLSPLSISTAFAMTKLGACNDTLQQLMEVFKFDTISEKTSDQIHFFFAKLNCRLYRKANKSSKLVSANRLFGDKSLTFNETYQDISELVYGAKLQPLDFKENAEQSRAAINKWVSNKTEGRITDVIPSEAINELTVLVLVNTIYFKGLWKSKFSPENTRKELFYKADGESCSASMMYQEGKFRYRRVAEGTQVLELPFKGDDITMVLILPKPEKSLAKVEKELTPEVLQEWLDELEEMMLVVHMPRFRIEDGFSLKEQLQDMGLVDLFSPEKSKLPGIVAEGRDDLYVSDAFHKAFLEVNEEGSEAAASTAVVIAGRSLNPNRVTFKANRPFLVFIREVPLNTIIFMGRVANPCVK

B1: human α-FXIIa (enzyme)
chain 1: IPPWEAPKEHKYKAEEHTVVLTVTGEPCHFPFQYHRQLYHKCTHKGRPGPQPWCATTPNFDQDQRWGYCLEPKKVKDHCSKHSPCQKGGTCVNMPSGPHCLCPQHLTGNHCQKEKCFEPQLLRFFHKNEIWYRTEQAAVARCQCKGPDAHCQRLASQACRTNPCLHGGRCLEVEGHRLCHCPVGYTGAFCDVDTKASCYDGRGLSYRGLARTTLSGAPCQPWASEATYRNVTAEQARNWGLGGHAFCRNPDNDIRPWCFVLNRDRLSWEYCDLAQCQTPTQAAPPTPVSPRLHVPLMPAQPAPPKPQPTTRTPPQSQTPGALPAKREQPPSLTRNGPLSCGQRLRKSLSSMTR
chain 2: VVGGLVALRGAHPYIAALYWGHSFCAGSLIAPCWVLTAAHCLQDRPAPEDLTVVLGQERRNHSCEPCQTLAVRSYRLHEAFSPVSYQHDLALLRLQEDADGSCALLSPYVQPVCLPSGAARPSETTLCQVAGWGHQFEGAEEYASFLQEAQVPFLSLERCSAPDVHGSSILPGMLCAGFLEGGTDACQGDSGGPLVCEDQAAERRLTLQGIISWGSGCGDRNKPGVYTDVAYYLAWIREHTVS
notes: factor XIIa heavy chain, cut product of human factor XII; factor XIIa light chain (protease domain), cut product of human factor XII; also called factor XIIa; source: bought: Enzyme Research Laboratories (HFXIIa 1212a)
B2: TH16-scr (peptide)
peptide: RKKGIRRYTERHSNIE
B3: FX18-scr (peptide)
peptide: SCPTHYSRQRCRNAVLER
B4: RCL19-scr (peptide)
peptide: GANPRELNSAATIASVARV

Key:
[1] = biological target: human serum albumin (human) (UniProt P02768); test: SPR; BIAcore 2000; HSA as negative control in place of transferrin; both purified
[2] = biological target: transferrin mutant (E333,338R) (human) (UniProt P02787); test: SPR; wild-type or mutant transferrin with thrombin or FXIIa, and transferrin with wild-type or mutant thrombin; both purified
apo-transferrin (human) = apo-transferrin (human) (UniProt P02787); test: SPR; transferrin with synthetic peptides (TH16, FX18, RCL19 and their scrambled controls); both purified

Molecule | binding [1] | binding [2] | binding (apo-transferrin (human))
antithrombin (from UniProt P01008 33-464) | no binding |  | 
B1 | no binding | binds weakly | 
B2 |  |  | no binding
B3 |  |  | no binding
B4 |  |  | no binding
